Assay results from publication PMC7431705, “Angiogenesis Inhibition by a Short 13 Amino Acid Peptide Sequence of Tetrastatin, the α4(IV) NC1 Domain of Collagen IV” (Frontiers in Cell and Developmental Biology, 2020).
Results are given in words; binding and its absence hold for the method and conditions named. Binding calls can cover weak binding; strength is not graded here.

T1: QS-13 peptide (…), minimal active sequence of Tetrastatin, the α4(IV) NC1 domain of collagen IV
T1 sequence (peptide): QKISRCQVCVKYS


Columns and labels:
[1] = molecular target: T1, QS-13 peptide (…), minimal active sequence of Tetrastatin, the α4(IV) NC1 domain of collagen IV; assay: affinity chromatography; HUVEC extract (RIPA lysate) loaded at 4°C on a HiTrap NHS-activated Sepharose column functionalized with QS-13; wash 10 mM Tris, 1 mM CaCl2, 1 mM MgCl2, pH 7.6, 0.1% octylglucoside; elution with 0.15, 0.6 and 1 M NaCl; western blot for α5 and β1 integrin; only the target purified
[2] = molecular target: α5β1 integrin (recombinant, R&D Systems 3230-A5-050); assay: ELISA; solid phase competition assay: wells coated with 25 nM α5β1 integrin; biotinylated QS-13 with or without unbiotinylated QS-13 (molar ratio 1/1 to 250/1), 90 min at room temperature; streptavidin-peroxidase detection; both purified

Molecule | binding [1] | binding [2]
α5β1 integrin of Human Umbilical Vein Endothelial Cells (HUVEC) (receptor) | binds | –
QKISRCQVCVKYS [QS-13 peptide (…), minimal active sequence of Tetrastatin, the α4(IV) NC1 domain of collagen IV] | – | binds
